Reference: the supplement of paper PMC4604168 (melanoma cell lines)
The other results are listed elsewhere or left out. Many values rest on one well or one pass, so single values are uncertain.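 Cells were imaged in 1,536-well plates, and nuclei stained with an antibody against cleaved PARP were counted against all DNA-stained nuclei to give the apoptosis fraction. Screening doses were chosen to leave most cells alive, and resting and induced cleaved-PARP levels differ strongly between cell lines.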

Columns and labels:
Test in all cases: cleaved PARP positive nuclei fraction relative to DMSO control; melanoma cells; higher = more apoptosis
Conditions in all cases: library dose: low library concentration; 72 h
CBRC034 = tested on: CBRC034 (line from a melanoma biopsy)
COLO792 = tested on: COLO792
COLO800 = tested on: COLO800
COLO829 = tested on: COLO829
G361 = tested on: G361
IPC-298 = tested on: IPC-298
IST-MEL1 = tested on: IST-MEL1
LB2518-MEL = tested on: LB2518-MEL
LOXIMVI = tested on: LOXIMVI
MZ2-MEL = tested on: MZ2-MEL
MeWo = tested on: MeWo
RPMI7951 = tested on: RPMI7951
RVH-421 = tested on: RVH-421
SkMel28 = tested on: SkMel28
SkMel30 = tested on: SkMel30
SkMel5 = tested on: SkMel5
UACC257 = tested on: UACC257
UACC62 = tested on: UACC62
MEL-HO = tested on: MEL-HO
SkMel2 = tested on: SkMel2

SMILES | cleaved PARP positive nuclei fraction (CBRC034) | cleaved PARP positive nuclei fraction (COLO792) | cleaved PARP positive nuclei fraction (COLO800) | cleaved PARP positive nuclei fraction (COLO829) | cleaved PARP positive nuclei fraction (G361) | cleaved PARP positive nuclei fraction (IPC-298) | cleaved PARP positive nuclei fraction (IST-MEL1) | cleaved PARP positive nuclei fraction (LB2518-MEL) | cleaved PARP positive nuclei fraction (LOXIMVI) | cleaved PARP positive nuclei fraction (MZ2-MEL) | cleaved PARP positive nuclei fraction (MeWo) | cleaved PARP positive nuclei fraction (RPMI7951) | cleaved PARP positive nuclei fraction (RVH-421) | cleaved PARP positive nuclei fraction (SkMel28) | cleaved PARP positive nuclei fraction (SkMel30) | cleaved PARP positive nuclei fraction (SkMel5) | cleaved PARP positive nuclei fraction (UACC257) | cleaved PARP positive nuclei fraction (UACC62) | cleaved PARP positive nuclei fraction (MEL-HO) | cleaved PARP positive nuclei fraction (SkMel2)
CO[C@@H]1[C@H](N(C)C(=O)c2ccccc2)C[C@H]2O[C@]1(C)n1c3ccccc3c3c4c(c5c6ccccc6n2c5c31)C(=O)NC4 [Midostaurin] + COc1ccc(COc2ccc(Cc3cnc(N)nc3N)cc2OC)cc1 [GW2580] (first compound 0.08 µM, partner dose 1 µM) | 91.9% | 144% | 134% | 88.4% | 92.5% | 178% | 184% | 197% | 190% | 125% | 355% | 94.7% | 19.1% | 108% | 243% | 78.6% | 61.6% | 168% |  | 
CC(C)(C)c1cnc(CSc2cnc(NC(=O)C3CCNCC3)s2)o1 + COc1ccc(COc2ccc(Cc3cnc(N)nc3N)cc2OC)cc1 [GW2580] (first compound 0.01 µM, partner dose 1 µM) | 180% | 97.7% | 67.9% | 107% | 156% | 51% | 235% | 84.2% | 112% | 329% | 215% | 50.1% | 68.4% | 107% | 99.2% | 220% | 42.9% | 28% |  | 
Cc1cc(N2CCOCC2)cc2[nH]c(-c3c(NC[C@@H](O)c4cccc(Cl)c4)cc[nH]c3=O)nc12 + O=S(=O)(c1ccccc1)N(CC(F)(F)F)c1ccc(C(O)(C(F)(F)F)C(F)(F)F)cc1 [T0901317] (first compound 0.2 µM, partner dose 1.4 µM) | 188% | 115% | 221% | 55.6% | 59.1% | 90.2% | 135% | 81.3% | 661% | 26.1% | 54.5% | 76.2% | 43.9% | 120% | 34.5% | 92% | 154% | 102% |  | 
Cn1c(Nc2ccc(C(F)(F)F)cc2)nc2cc(Oc3ccnc(-c4ncc(C(F)(F)F)[nH]4)c3)ccc21 + COCC[n+]1c2c(n(Cc3cnccn3)c1C)C(=O)c1ccccc1C2=O [YM155] (first compound 0.08 µM, partner dose 0.0004 µM) | 174% | 361% | 28.9% | 152% | 209% | 105% | 125% | 107% | 146% | 144% | 134% | 97.5% | 51.1% | 118% | 267% |  |  | 95.5% | 139% | 466%
Clc1ccc(Nc2nnc(Cc3ccncc3)c3ccccc23)cc1 [vatalanib] + C#Cc1cccc(Nc2ncnc3cc(OCCOC)c(OCCOC)cc23)c1 [erlotinib] (first compound 2 µM, partner dose 0.8 µM) | 151% | 133% | 63.7% | 98.7% | 105% | 94.3% | 147% | 77.8% | 168% | 78.8% | 25.9% | 184% | 126% | 90% | 125% |  |  | 126% | 119% | 75%
Clc1ccc(Nc2nnc(Cc3ccncc3)c3ccccc23)cc1 [vatalanib] + Cn1nnc2c(C(N)=O)ncn2c1=O [temozolomide] (first compound 2 µM, partner dose 2 µM) | 139% | 145% | 105% | 19.2% | 132% | 178% | 68.6% | 59.7% | 504% | 99.1% | 187% | 71.1% | 185% | 99.4% | 115% |  |  | 155% | 22.1% | 52.5%
Cc1ccc(NC(=O)c2cccc(N(C)C)c2)cc1NC(=O)c1ccc(O)cc1 + CCN(CC)CCCCNc1ncc2cc(-c3cc(OC)cc(OC)c3)c(NC(=O)NC(C)(C)C)nc2n1 [PD173074] (first compound 2 µM, partner dose 0.1 µM) | 107% | 111% | 89.4% | 111% | 69.1% | 143% | 80.5% | 98.7% | 27.4% | 135% | 56.3% | 109% | 65.1% | 128% | 440% | 27.8% | 136% | 129% |  | 
C=CCn1c(=O)c2cnc(Nc3ccc(N4CCN(C)CC4)cc3)nc2n1-c1cccc(C(C)(C)O)n1 + COc1cc2ncnc(Nc3ccc(Oc4ccccc4)cc3)c2cc1OC [SrcI1] (first compound 0.02 µM, partner dose 2 µM) | 94.6% | 27.5% | 87.4% | 114% | 65.5% | 90.5% | 29.2% | 76% | 34.9% | 60.6% | 87.9% | 73.5% | 20.7% | 177% | 102% | 34.9% | 112% | 113% |  | 
CC(=O)c1c(C)c2cnc(Nc3ccc(N4CCNCC4)cn3)nc2n(C2CCCC2)c1=O [palbociclib] + Nc1cccc2c1CN(C1CCC(=O)NC1=O)C2=O [lenalidomide] (first compound 0.04 µM, partner dose 1 µM) | 83.9% | 178% | 153% | 103% | 92% | 187% | 53.9% | 130% | 177% | 110% | 53.1% | 44.5% | 124% | 81.9% | 53.1% |  |  | 160% | 93.4% | 90.5%
C#Cc1cccc(Nc2ncnc3cc(OCCOC)c(OCCOC)cc23)c1 [erlotinib] + Nc1cccc2c1CN(C1CCC(=O)NC1=O)C2=O [lenalidomide] (first compound 0.8 µM, partner dose 1 µM) | 68.8% | 89.4% | 132% | 90.2% | 125% | 94.5% | 327% | 102% | 100% | 95.2% | 136% | 71.2% | 115% | 43.7% | 101% |  |  | 87.8% | 59.7% | 
C[C@]1(c2nc3c(C(N)=O)cccc3[nH]2)CCCN1 [Veliparib] + Cn1cc(/C=C2\C(=O)Nc3cccnc32)c2ccccc21 [GW441756] (first compound 1.4 µM, partner dose 0.4 µM) | 65.7% | 139% | 131% | 207% | 288% | 40.1% | 42.7% | 79.5% | 77.5% | 92.2% | 55.3% | 112% | 153% | 150% | 27.4% | 67.2% | 59.6% | 64.4% |  | 
CC(=O)c1c(C)c2cnc(Nc3ccc(N4CCNCC4)cn3)nc2n(C2CCCC2)c1=O [palbociclib] + C[C@]1(c2nc3c(C(N)=O)cccc3[nH]2)CCCN1 [Veliparib] (first compound 0.04 µM, partner dose 1.4 µM) | 54.2% | 60.8% | 40.7% | 88.2% | 105% | 99.9% | 70.7% | 132% | 205% | 108% | 94% | 47% | 90.1% | 106% | 84.2% |  |  | 181% | 45.5% | 134%
Cn1nnc2c(C(N)=O)ncn2c1=O [temozolomide] + COc1ccc2c(c1)CCC1C2CCC2(C)C(NCCCCCCN3C(=O)C=CC3=O)CCC12 [U73122] (first compound 2 µM, partner dose 0.4 µM) | 44.3% | 96.4% | 81.6% | 175% | 57.4% | 90.2% | 64% | 88.9% | 73.2% | 63.7% | 130% | 99.8% | 48.4% | 92.7% | 18.1% | 49.5% | 132% | 93.5% |  | 
Clc1ccc(Nc2nnc(Cc3ccncc3)c3ccccc23)cc1 [vatalanib] + Nc1cccc2c1CN(C1CCC(=O)NC1=O)C2=O [lenalidomide] (first compound 2 µM, partner dose 1 µM) | 47.3% | 135% | 66.5% | 132% | 118% | 87.2% | 402% | 98.3% | 235% | 156% | 330% | 90.1% | 84.6% | 74% | 26.3% |  |  | 70.9% | 88.6% | 27.6%
Cn1nnc2c(C(N)=O)ncn2c1=O [temozolomide] + N#Cc1c(O)c2c(-c3ccc(-c4ccccc4O)cc3)csc2[nH]c1=O [A769662] (first compound 2 µM, partner dose 2 µM) | 44.4% | 128% | 26% | 120% | 73.2% | 50.8% | 91% | 228% | 73.9% | 111% | 47.5% | 46.1% | 103% | 19.5% | 40.2% | 41.8% | 353% | 92.2% |  | 
Cn1c(Nc2ccc(C(F)(F)F)cc2)nc2cc(Oc3ccnc(-c4ncc(C(F)(F)F)[nH]4)c3)ccc21 + Nc1cccc2c1CN(C1CCC(=O)NC1=O)C2=O [lenalidomide] (first compound 0.08 µM, partner dose 1 µM) | 40.6% | 490% | 119% | 220% | 133% | 140% | 65.9% | 176% | 93.4% | 76.3% | 158% | 66.1% | 182% | 149% | 168% |  |  | 383% | 155% | 120%
C=CCn1c(=O)c2cnc(Nc3ccc(N4CCN(C)CC4)cc3)nc2n1-c1cccc(C(C)(C)O)n1 + Oc1cc(-c2nc(-c3ccccc3)[nH]c2-c2ccncc2)ccc1Cl [L779450] (first compound 0.02 µM, partner dose 0.2 µM) | 143% | 108% | 60% | 118% | 20.1% | 283% | 46.2% | 123% | 68.7% | 83.3% | 56.7% | 178% | 120% | 275% | 166% | 38.3% | 190% | 195% |  | 
NC(=O)Nc1cc(-c2cccc(F)c2)sc1C(=O)N[C@H]1CCCNC1 + COc1ccc2c(c1)CCC1C2CCC2(C)C(NCCCCCCN3C(=O)C=CC3=O)CCC12 [U73122] (first compound 0.02 µM, partner dose 0.4 µM) | 87.9% | 109% | 123% | 198% | 72.2% | 73.3% | 26.2% | 117% | 79.2% | 113% | 100% | 35.3% | 53.7% | 95.3% | 68.1% | 56.3% | 99.5% | 120% |  | 

Exported with tabs: part of the list above
SMILES	cleaved PARP positive nuclei fraction (CBRC034)	cleaved PARP positive nuclei fraction (COLO792)	cleaved PARP positive nuclei fraction (COLO800)	cleaved PARP positive nuclei fraction (COLO829)	cleaved PARP positive nuclei fraction (G361)	cleaved PARP positive nuclei fraction (IPC-298)	cleaved PARP positive nuclei fraction (IST-MEL1)	cleaved PARP positive nuclei fraction (LB2518-MEL)	cleaved PARP positive nuclei fraction (LOXIMVI)	cleaved PARP positive nuclei fraction (MZ2-MEL)	cleaved PARP positive nuclei fraction (MeWo)	cleaved PARP positive nuclei fraction (RPMI7951)	cleaved PARP positive nuclei fraction (RVH-421)	cleaved PARP positive nuclei fraction (SkMel28)	cleaved PARP positive nuclei fraction (SkMel30)	cleaved PARP positive nuclei fraction (SkMel5)	cleaved PARP positive nuclei fraction (UACC257)	cleaved PARP positive nuclei fraction (UACC62)	cleaved PARP positive nuclei fraction (MEL-HO)	cleaved PARP positive nuclei fraction (SkMel2)
CC(=O)c1c(C)c2cnc(Nc3ccc(N4CCNCC4)cn3)nc2n(C2CCCC2)c1=O [palbociclib] + C[C@]1(c2nc3c(C(N)=O)cccc3[nH]2)CCCN1 [Veliparib] (first compound 0.04 µM, partner dose 1.4 µM)	54.2%	60.8%	40.7%	88.2%	105%	99.9%	70.7%	132%	205%	108%	94%	47%	90.1%	106%	84.2%			181%	45.5%	134%
Cn1nnc2c(C(N)=O)ncn2c1=O [temozolomide] + COc1ccc2c(c1)CCC1C2CCC2(C)C(NCCCCCCN3C(=O)C=CC3=O)CCC12 [U73122] (first compound 2 µM, partner dose 0.4 µM)	44.3%	96.4%	81.6%	175%	57.4%	90.2%	64%	88.9%	73.2%	63.7%	130%	99.8%	48.4%	92.7%	18.1%	49.5%	132%	93.5%		
Clc1ccc(Nc2nnc(Cc3ccncc3)c3ccccc23)cc1 [vatalanib] + Nc1cccc2c1CN(C1CCC(=O)NC1=O)C2=O [lenalidomide] (first compound 2 µM, partner dose 1 µM)	47.3%	135%	66.5%	132%	118%	87.2%	402%	98.3%	235%	156%	330%	90.1%	84.6%	74%	26.3%			70.9%	88.6%	27.6%
Cn1nnc2c(C(N)=O)ncn2c1=O [temozolomide] + N#Cc1c(O)c2c(-c3ccc(-c4ccccc4O)cc3)csc2[nH]c1=O [A769662] (first compound 2 µM, partner dose 2 µM)	44.4%	128%	26%	120%	73.2%	50.8%	91%	228%	73.9%	111%	47.5%	46.1%	103%	19.5%	40.2%	41.8%	353%	92.2%		
